Structures were worked out from names or drawings and are uncertain.
Columns and labels:
[1] = molecular target: CFTR-mediated chloride transport in human intestinal epithelial enteroid cells (Homo sapiens, UniProt P13569); experiment: Membrane potential dye, Enteroid Assay A; settings: for Ent. A Max Activity (%): % of chloride transport of triple combination control (3 μM N-[(6-amino-2-pyridyl)sulfonyl]-6-(3-fluoro-5-isobutoxy-phenyl)-2-[(4S)-2,2,4-trimethylpyrrolidin-1-yl]pyridine-3-carboxamide, 3 μM tezacaftor, 300 nM acute ivacaftor); for EC50: read-out: Ent. A EC50, enteroid cells, 18-24 hours incubation, acute 10 μM forskolin and 300 nM ivacaftor
F508del in NIH 3T3 cells = F508del in NIH 3T3 cells (Homo sapiens, UniProt P13569, DEL508-508); experiment: 3T3 assay: membrane potential optical assay for F508del correction; settings: F508del NIH 3T3 cells

The chains behind the UniProt entries cited, without tags or fusion partners. A line that says so, or that is headed by a name, gives the form on record, which may keep a tag or linker.
UniProt P13569, with tags, fused parts or gaps DEL508-508: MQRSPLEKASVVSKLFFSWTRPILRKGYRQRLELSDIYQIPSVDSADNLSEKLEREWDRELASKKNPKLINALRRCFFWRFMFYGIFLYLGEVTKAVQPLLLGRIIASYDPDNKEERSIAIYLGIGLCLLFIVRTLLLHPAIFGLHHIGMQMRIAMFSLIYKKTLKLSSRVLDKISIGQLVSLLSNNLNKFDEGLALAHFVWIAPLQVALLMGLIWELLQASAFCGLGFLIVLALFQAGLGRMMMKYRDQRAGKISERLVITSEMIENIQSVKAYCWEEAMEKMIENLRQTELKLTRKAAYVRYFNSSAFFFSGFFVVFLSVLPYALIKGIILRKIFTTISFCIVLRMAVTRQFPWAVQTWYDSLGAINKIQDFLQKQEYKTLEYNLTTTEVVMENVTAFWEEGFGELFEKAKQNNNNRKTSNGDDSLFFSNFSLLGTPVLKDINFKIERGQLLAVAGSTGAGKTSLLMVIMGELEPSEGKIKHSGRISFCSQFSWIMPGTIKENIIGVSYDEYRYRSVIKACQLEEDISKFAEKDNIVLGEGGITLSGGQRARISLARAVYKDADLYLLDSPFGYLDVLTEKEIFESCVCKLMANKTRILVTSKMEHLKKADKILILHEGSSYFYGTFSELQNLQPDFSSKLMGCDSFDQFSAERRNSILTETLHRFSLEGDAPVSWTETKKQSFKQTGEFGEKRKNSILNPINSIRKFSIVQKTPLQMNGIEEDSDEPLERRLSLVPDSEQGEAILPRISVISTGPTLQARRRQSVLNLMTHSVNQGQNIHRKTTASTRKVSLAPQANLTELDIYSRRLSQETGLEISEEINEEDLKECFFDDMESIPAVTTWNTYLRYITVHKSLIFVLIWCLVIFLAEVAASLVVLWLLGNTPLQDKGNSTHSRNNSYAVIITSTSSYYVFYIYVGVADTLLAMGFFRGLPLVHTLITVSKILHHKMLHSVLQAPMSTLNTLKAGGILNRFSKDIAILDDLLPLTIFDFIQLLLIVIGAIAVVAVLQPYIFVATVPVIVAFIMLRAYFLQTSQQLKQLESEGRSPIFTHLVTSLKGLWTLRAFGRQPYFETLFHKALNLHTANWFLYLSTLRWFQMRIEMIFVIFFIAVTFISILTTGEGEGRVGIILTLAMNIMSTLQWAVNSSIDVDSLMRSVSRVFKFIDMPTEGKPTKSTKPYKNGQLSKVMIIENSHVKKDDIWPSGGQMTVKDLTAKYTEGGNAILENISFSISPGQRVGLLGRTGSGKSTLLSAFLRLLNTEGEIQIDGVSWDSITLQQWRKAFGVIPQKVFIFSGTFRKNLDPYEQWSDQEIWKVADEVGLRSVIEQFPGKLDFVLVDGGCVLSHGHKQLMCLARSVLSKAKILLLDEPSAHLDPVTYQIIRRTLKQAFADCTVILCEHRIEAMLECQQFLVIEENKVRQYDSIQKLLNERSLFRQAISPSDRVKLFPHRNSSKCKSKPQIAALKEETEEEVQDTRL

Row | Structure (SMILES) | Ent. A Max Activity (%) [1] | EC50 [1] | 3T3 Max Activity (%) (F508del in NIH 3T3 cells; efficacy compared to lumacaftor in combination with acutely added 300 nM Ivacaftor) | EC50 (F508del in NIH 3T3 cells; read-out: 3T3 EC50, compound incubation 18-24 hours at 37° C., forskolin activation)
1 | Cc1cccc(C)c1-c1cc2nc(n1)NS(=O)(=O)c1cccc(c1)NCc1cc(ccc1Cl)O2 | ++ (++ is 30-60%) | 1000 to 3000 nM | +++ (+++ is >60%) | < 1000 nM
2 | Cc1cccc(C)c1-c1cc2nc(n1)NS(=O)(=O)c1cccc(c1)NC(=O)[C@@H]1C[C@@H](CN(CCC(C)(O)C(F)(F)F)C1)O2 (stereo partly drawn) | +++ (+++ is >60%) | 1000 to 3000 nM | – | –
